Substitutions are numbered along the chain they refer to. Results are given in words; binding and its absence hold for the method and conditions named. Some binding calls cover weakened binding; strength is not graded here. Values belong to the binder of their own block, whether it stands above or below them.
Assays:
[1] = target: T1, Recombinant human NRG1-β ECD domain (R&D Systems, cat#377-HB/CF) (human) (UniProt Q02297); assay: competition assay, competitor 538.24.71
T1 sequence: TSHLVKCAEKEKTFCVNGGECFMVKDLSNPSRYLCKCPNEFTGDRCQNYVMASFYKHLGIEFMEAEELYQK

[2] = target: T1, Recombinant human NRG1-β ECD domain (R&D Systems, cat#377-HB/CF) (human); assay: competition assay, competitor 538.24.17
[3] = target: T1, Recombinant human NRG1-β ECD domain (R&D Systems, cat#377-HB/CF) (human); assay: competition ELISA on NRG1β; signal of 526.90 against rising 538.24.71
[4] = target: T1, Recombinant human NRG1-β ECD domain (R&D Systems, cat#377-HB/CF) (human); assay: SPR (BIAcore T100), IgG captured by anti-human Fc, 125 nM NRG1β injected; sensorgram
[5] = target: T1, Recombinant human NRG1-β ECD domain (R&D Systems, cat#377-HB/CF) (human); assay: competition assay, competitor 526.09
[6] = target: T1, Recombinant human NRG1-β ECD domain (R&D Systems, cat#377-HB/CF) (human); assay: competition ELISA on NRG1β (HRG1β); signal of 526.02, 526.90 or 538.24.71 against rising 538.24.71; the format is not described in the text
[7] = target: T1, Recombinant human NRG1-β ECD domain (R&D Systems, cat#377-HB/CF) (human); assay: competition assay, competitor 526.90

B2: anti-NRG1 antibody 538.24 (antibody, human IgG1, V domains shown)
VH: EVQLVESGGGLVQPGGSLRLSCAASGFTFSGTWIHWVRQAPGKGLEWVAAITPADGSTNYADSVKGRFTISADTSKNTAYLQMNSLRAEDTAVYYCATYMFAMDYWGQGTLVTVSS
VL: DIQMTQSPSSLSASVGDRVTITCRASQDVSTAVAWYQQKPGKAPKLLIYSASFLYSGVPSRFSGSGSGTDFTLTISSLQPEDFATYYCQQSYTTPPTFGQGTKVEIKR
notes: also called YW538.24
binding [4]: binds

B3: anti-NRG1 antibody 538.24.71 (antibody, human IgG1, kappa, V domains shown)
VH: B2 VH
VL: B2 VL with T31I, A32S, V33L, S50G, F53N, Y55E, S91H, T94L, P96F
notes: also called YW538.24.71
binding [4]: binds
binding [5]: binds
binding [6]: binds

B5: anti-NRG1 antibody 538.24.17 (antibody, human IgG1, V domains shown)
VH: B2 VH
VL: B2 VL with T93W, T94M
notes: also called YW538.24.17
binding [4]: binds
binding [7]: binds

B6: anti-NRG1 antibody 538.24.36 (antibody, human IgG1, V domains shown)
VH: B2 VH
VL: DIQMTQSPSSLSASVGDRVTITCRASQNVDRSLAWYQQKPGKAPKLLIYAASSLESGVPSRFSGSGSGTDFTLTISSLQPEDFATYYCQQHYTLPFTFGQGTKVEIKR
notes: also called YW538.24.36
binding [4]: binds

Results, then the binder that gave them:

binding [1]: binds
binding [2]: binds
binding [3]: binds
B1: anti-NRG1 antibody 526.90 (antibody, human IgG1, V domains shown)
VH: EVQLVESGGGLVQPGGSLRLSCAASGFTFSGNAMSWVRQAPGKGLEWVSWIYPSGGNTYYADSVKGRFTISADTSKNTAYLQMNSLRAEDTAVYYCARSYILSYPSITWAFDYWGQGTLVTVSS
VL: DIQMTQSPSSLSASVGDRVTITCRASQSISSYLAWYQQKPGKAPKLLIYGASSRASGVPSRFSGSGSGTDFTLTISSLQPEDFATYYCQQSYSTPITFGQGTKVEIKR
notes: also called YW526.90

binding [4]: binds
B4: 538.24.38 (antibody, V domains shown)
VH: B2 VH
VL: DIQMTQSPSSLSASVGDRVTITCRASQDVSTAVAWYQQKPGKAPKLLIYSASFLYSGVPSRFSGSGSGTDFTLTISSLQPEDFATYYCQQSYTIPMTFGQGTKVEIK
notes: also called YW538.24.38; copies: 2 + 2

binding [4]: binds
B7: anti-NRG1 antibody 538.24.94 (antibody, human IgG1, V domains shown)
VH: B2 VH
VL: B6 VL with N28D, D30K, R31K, A50G, S53N, F96L
notes: also called YW538.24.94

— US20140363438A1, “NEUREGULIN ANTIBODIES AND USES THEREOF” (Genentech, Inc., priority 2011, published 2014)
